Measurements taken from PMC11589570, “Critical assessment of LC3/GABARAP ligands used for degrader development and ligandability of LC3/GABARAP binding pockets” (Nature Communications, 2024).
“And” between values parts separate entries of the source, which are not always exact repeats. Identical values can stand only once. Further values from the same series stand in other lists.

Test system: U2OS cells
Assay: Cell growth assay (IncuCyte confluence over 72 h)
Format: cell-based
Design: key: % of well area covered by cells (confluence)
Description: Cell growth assay: Cell confluence (phase) from RPE1 (hTERT RPE-1, ATCC CLR_4000) or U2OS (ATCC, HTB-96) cell lines were monitored over time with the IncuCyte S3 (Sartiorius, Germany) in 384-well plates in 50 ul DMEM media, supplemented with 10% Fetal Bovine Serum (FBS) 1% penicillin/Streptomycin and incubated 24 h before treatment. Experiment was performed as described in Cano-Franco et al.. […] Cell confluence is represented as % of area covered by cells. Each data point represents the average ratio or confluence obtained from three individual wells of the plate.

In the case of `O=C1CC(c2ccc(Cl)c(Cl)c2)CC(=O)C1=CNCCN1CCNCC1` (centres unmarked) [Cov-3], the U2OS cell growth (3 uM, time 12 h) was 43.4861 and 28.0002 and 50.1693, the U2OS cell growth (3 uM, time 14 h) was 41.8109 and 27.9585 and 52.0009 and the U2OS cell growth (3 uM, time 16 h) was 43.5379 and 29.5739 and 52.5069. The U2OS cell growth (3 uM, time 18 h) was 44.2717 and 29.9913 and 55.6453, the U2OS cell growth (3 uM, time 20 h) was 43.2143 and 29.626 and 45.3978 and the U2OS cell growth (3 uM, time 22 h) was 46.2908 and 29.9803 and 53.5055. The U2OS cell growth (3 uM, time 24 h) was 76.2424 and 41.4883 and 68.4498, the U2OS cell growth (3 uM, time 26 h) was 55.6998 and 34.7805 and 68.2985 and the U2OS cell growth (3 uM, time 28 h) was 55.5388 and 36.9224 and 64.6994. For the same compound, the U2OS cell growth (3 uM, time 32 h) was 69.2378 and 47.0317 and 71.4411, the U2OS cell growth (3 uM, time 34 h) was 61.744 and 42.7789 and 67.1815 and the U2OS cell growth (3 uM, time 36 h) was 61.8219 and 38.4503 and 63.1718. For the same compound, the U2OS cell growth (3 uM, time 38 h) was 70.3858 and 43.0013 and 84.3862, the U2OS cell growth (3 uM, time 40 h) was 72.8486 and 43.5517 and 76.196 and the U2OS cell growth (3 uM, time 42 h) was 82.1679 and 55.0255 and 88.8781. The U2OS cell growth (3 uM, time 44 h) was 76.7106 and 54.4554 and 91.0243, the U2OS cell growth (3 uM, time 46 h) was 81.5847 and 57.0507 and 69.1145 and the U2OS cell growth (3 uM, time 48 h) was 83.5561 and 54.7923 and 84.406. The U2OS cell growth (3 uM, time 50 h) was 89.7212 and 59.6423 and 89.3225, the U2OS cell growth (3 uM, time 52 h) was 91.7723 and 55.4947 and 92.4092 and the U2OS cell growth (3 uM, time 54 h) was 93.4434 and 71.6993 and 89.9728. The U2OS cell growth (3 uM, time 56 h) was 94.8237 and 74.6536 and 94.2151, the U2OS cell growth (3 uM, time 58 h) was 98.1184 and 79.6043 and 97.2742 and the U2OS cell growth (3 uM, time 60 h) was 89.8455 and 68.3403 and 94.239. The U2OS cell growth (3 uM, time 62 h) was 94.3733 and 77.1807 and 97.049, the U2OS cell growth (3 uM, time 64 h) was 99.1151 and 85.0671 and 97.5391 and the U2OS cell growth (3 uM, time 66 h) was 95.2648 and 74.4698 and 95.6838. The U2OS cell growth (3 uM, time 68 h) was 95.5706 and 80.5435 and 95.4047, the U2OS cell growth (3 uM, time 70 h) was 96.8702 and 88.3689 and 94.9067 and the U2OS cell growth (3 uM, time 72 h) was 99.2485 and 89.3657 and 97.7831. For the same compound, the U2OS cell growth (5 uM, time 12 h) was 43.0941 and 33.7933 and 39.6335, the U2OS cell growth (5 uM, time 14 h) was 49.7739 and 36.24 and 41.4691 and the U2OS cell growth (5 uM, time 16 h) was 49.5117 and 34.4551 and 40.733. The U2OS cell growth (5 uM, time 18 h) was 55.7143 and 41.9583 and 48.0215, the U2OS cell growth (5 uM, time 20 h) was 52.8126 and 41.5046 and 38.6948 and the U2OS cell growth (5 uM, time 22 h) was 55.39 and 40.8728 and 44.4663. For the same compound, the U2OS cell growth (5 uM, time 24 h) was 57.1711 and 44.8381 and 45.0216, the U2OS cell growth (5 uM, time 26 h) was 60.3037 and 51.9445 and 50.3514 and the U2OS cell growth (5 uM, time 28 h) was 63.5144 and 51.0518 and 55.1328. The U2OS cell growth (5 uM, time 30 h) was 58.3226 and 39.7111 and 52.6152, the U2OS cell growth (5 uM, time 32 h) was 70.1262 and 58.264 and 50.3886 and the U2OS cell growth (5 uM, time 34 h) was 73.8763 and 53.5707 and 56.4645. The U2OS cell growth (5 uM, time 36 h) was 74.3646 and 60.2801 and 61.0466, the U2OS cell growth (5 uM, time 38 h) was 68.9052 and 58.1877 and 57.3166 and the U2OS cell growth (5 uM, time 40 h) was 77.5519 and 58.3266 and 66.8908. The U2OS cell growth (5 uM, time 42 h) was 86.4934 and 63.8523 and 77.8514, the U2OS cell growth (5 uM, time 44 h) was 84.974 and 76.459 and 70.9389 and the U2OS cell growth (5 uM, time 46 h) was 86.2469 and 66.2105 and 58.0312. The U2OS cell growth (5 uM, time 48 h) was 88.0137 and 75.4588 and 69.5554, the U2OS cell growth (5 uM, time 50 h) was 92.5351 and 75.0652 and 78.6768 and the U2OS cell growth (5 uM, time 52 h) was 94.6117 and 77.6463 and 86.2776. The U2OS cell growth (5 uM, time 54 h) was 95.8052 and 84.5624 and 82.7041, the U2OS cell growth (5 uM, time 56 h) was 96.2544 and 81.5825 and 91.4643 and the U2OS cell growth (5 uM, time 58 h) was 94.7421 and 84.6699 and 92.373. For the same compound, the U2OS cell growth (5 uM, time 60 h) was 97.6618 and 85.0112 and 93.6333, the U2OS cell growth (5 uM, time 62 h) was 98.2696 and 89.8795 and 94.2472 and the U2OS cell growth (5 uM, time 64 h) was 98.9956 and 88.1889 and 92.6674. The U2OS cell growth (5 uM, time 66 h) was 99.029 and 85.213 and 94.6773, the U2OS cell growth (5 uM, time 68 h) was 98.1356 and 87.9876 and 93.5547 and the U2OS cell growth (5 uM, time 70 h) was 98.3204 and 85.9772 and 93.6533. For the same compound, the U2OS cell growth (5 uM, time 72 h) was 99.5427 and 93.1045 and 97.9257, the U2OS cell growth (10 uM, time 12 h) was 38.3168 and 26.3567 and 27.4967 and the U2OS cell growth (10 uM, time 14 h) was 36.6784 and 26.6401 and 28.1053. The U2OS cell growth (10 uM, time 16 h) was 37.0978 and 24.6529 and 26.0824, the U2OS cell growth (10 uM, time 18 h) was 42.1186 and 26.1778 and 28.2156 and the U2OS cell growth (10 uM, time 20 h) was 45.2476 and 31.1256 and 29.0633. The U2OS cell growth (10 uM, time 22 h) was 41.5919 and 30.3643 and 30.2681, the U2OS cell growth (10 uM, time 24 h) was 47.291 and 32.7861 and 34.4437 and the U2OS cell growth (10 uM, time 26 h) was 49.4244 and 36.947 and 35.1114. For the same compound, the U2OS cell growth (10 uM, time 28 h) was 55.4156 and 36.4505 and 38.1742, the U2OS cell growth (10 uM, time 30 h) was 56.3364 and 34.3259 and 28.2098 and the U2OS cell growth (10 uM, time 32 h) was 53.3136 and 36.327 and 31.8181. For the same compound, the U2OS cell growth (10 uM, time 34 h) was 60.1633 and 44.2443 and 44.1728, the U2OS cell growth (10 uM, time 36 h) was 55.4262 and 40.0225 and 38.3053 and the U2OS cell growth (10 uM, time 38 h) was 59.1193 and 43.3343 and 43.6742. For the same compound, the U2OS cell growth (10 uM, time 40 h) was 59.893 and 44.118 and 44.7492, the U2OS cell growth (10 uM, time 42 h) was 65.6792 and 49.3826 and 50.1919 and the U2OS cell growth (10 uM, time 44 h) was 68.0916 and 52.8292 and 53.5612. The U2OS cell growth (10 uM, time 46 h) was 70.7293 and 52.8189 and 55.9308, the U2OS cell growth (10 uM, time 48 h) was 71.263 and 53.1055 and 48.1643 and the U2OS cell growth (10 uM, time 50 h) was 75.1418 and 58.8282 and 59.9723. For the same compound, the U2OS cell growth (10 uM, time 52 h) was 80.428 and 60.3568 and 64.4991, the U2OS cell growth (10 uM, time 54 h) was 81.4954 and 65.4774 and 66.0854 and the U2OS cell growth (10 uM, time 56 h) was 84.059 and 65.1759 and 75.7737. The U2OS cell growth (10 uM, time 58 h) was 88.062 and 70.6137 and 76.7368, the U2OS cell growth (10 uM, time 60 h) was 90.7126 and 73.4389 and 79.4368 and the U2OS cell growth (10 uM, time 62 h) was 89.1196 and 74.4968 and 77.2172. For the same compound, the U2OS cell growth (10 uM, time 64 h) was 92.1829 and 77.2315 and 84.3033, the U2OS cell growth (10 uM, time 66 h) was 92.6451 and 74.3186 and 75.0777 and the U2OS cell growth (10 uM, time 68 h) was 96.4851 and 81.8485 and 84.0083. For the same compound, the U2OS cell growth (10 uM, time 70 h) was 95.3716 and 81.6625 and 86.4202 and the U2OS cell growth (10 uM, time 72 h) was 98.251 and 87.2296 and 89.9767.
